This is one part of the list.

Amino acid sequences for entries named in this document (tags omitted). A change or cut given only in a name is not applied to a line headed by its entry.
UniProt Q04760: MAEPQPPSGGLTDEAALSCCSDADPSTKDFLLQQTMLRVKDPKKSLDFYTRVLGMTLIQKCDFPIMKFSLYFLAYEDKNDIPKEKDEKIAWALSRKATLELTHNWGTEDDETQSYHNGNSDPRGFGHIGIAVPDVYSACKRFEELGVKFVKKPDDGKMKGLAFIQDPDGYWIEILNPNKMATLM
UniProt Q3T8J9: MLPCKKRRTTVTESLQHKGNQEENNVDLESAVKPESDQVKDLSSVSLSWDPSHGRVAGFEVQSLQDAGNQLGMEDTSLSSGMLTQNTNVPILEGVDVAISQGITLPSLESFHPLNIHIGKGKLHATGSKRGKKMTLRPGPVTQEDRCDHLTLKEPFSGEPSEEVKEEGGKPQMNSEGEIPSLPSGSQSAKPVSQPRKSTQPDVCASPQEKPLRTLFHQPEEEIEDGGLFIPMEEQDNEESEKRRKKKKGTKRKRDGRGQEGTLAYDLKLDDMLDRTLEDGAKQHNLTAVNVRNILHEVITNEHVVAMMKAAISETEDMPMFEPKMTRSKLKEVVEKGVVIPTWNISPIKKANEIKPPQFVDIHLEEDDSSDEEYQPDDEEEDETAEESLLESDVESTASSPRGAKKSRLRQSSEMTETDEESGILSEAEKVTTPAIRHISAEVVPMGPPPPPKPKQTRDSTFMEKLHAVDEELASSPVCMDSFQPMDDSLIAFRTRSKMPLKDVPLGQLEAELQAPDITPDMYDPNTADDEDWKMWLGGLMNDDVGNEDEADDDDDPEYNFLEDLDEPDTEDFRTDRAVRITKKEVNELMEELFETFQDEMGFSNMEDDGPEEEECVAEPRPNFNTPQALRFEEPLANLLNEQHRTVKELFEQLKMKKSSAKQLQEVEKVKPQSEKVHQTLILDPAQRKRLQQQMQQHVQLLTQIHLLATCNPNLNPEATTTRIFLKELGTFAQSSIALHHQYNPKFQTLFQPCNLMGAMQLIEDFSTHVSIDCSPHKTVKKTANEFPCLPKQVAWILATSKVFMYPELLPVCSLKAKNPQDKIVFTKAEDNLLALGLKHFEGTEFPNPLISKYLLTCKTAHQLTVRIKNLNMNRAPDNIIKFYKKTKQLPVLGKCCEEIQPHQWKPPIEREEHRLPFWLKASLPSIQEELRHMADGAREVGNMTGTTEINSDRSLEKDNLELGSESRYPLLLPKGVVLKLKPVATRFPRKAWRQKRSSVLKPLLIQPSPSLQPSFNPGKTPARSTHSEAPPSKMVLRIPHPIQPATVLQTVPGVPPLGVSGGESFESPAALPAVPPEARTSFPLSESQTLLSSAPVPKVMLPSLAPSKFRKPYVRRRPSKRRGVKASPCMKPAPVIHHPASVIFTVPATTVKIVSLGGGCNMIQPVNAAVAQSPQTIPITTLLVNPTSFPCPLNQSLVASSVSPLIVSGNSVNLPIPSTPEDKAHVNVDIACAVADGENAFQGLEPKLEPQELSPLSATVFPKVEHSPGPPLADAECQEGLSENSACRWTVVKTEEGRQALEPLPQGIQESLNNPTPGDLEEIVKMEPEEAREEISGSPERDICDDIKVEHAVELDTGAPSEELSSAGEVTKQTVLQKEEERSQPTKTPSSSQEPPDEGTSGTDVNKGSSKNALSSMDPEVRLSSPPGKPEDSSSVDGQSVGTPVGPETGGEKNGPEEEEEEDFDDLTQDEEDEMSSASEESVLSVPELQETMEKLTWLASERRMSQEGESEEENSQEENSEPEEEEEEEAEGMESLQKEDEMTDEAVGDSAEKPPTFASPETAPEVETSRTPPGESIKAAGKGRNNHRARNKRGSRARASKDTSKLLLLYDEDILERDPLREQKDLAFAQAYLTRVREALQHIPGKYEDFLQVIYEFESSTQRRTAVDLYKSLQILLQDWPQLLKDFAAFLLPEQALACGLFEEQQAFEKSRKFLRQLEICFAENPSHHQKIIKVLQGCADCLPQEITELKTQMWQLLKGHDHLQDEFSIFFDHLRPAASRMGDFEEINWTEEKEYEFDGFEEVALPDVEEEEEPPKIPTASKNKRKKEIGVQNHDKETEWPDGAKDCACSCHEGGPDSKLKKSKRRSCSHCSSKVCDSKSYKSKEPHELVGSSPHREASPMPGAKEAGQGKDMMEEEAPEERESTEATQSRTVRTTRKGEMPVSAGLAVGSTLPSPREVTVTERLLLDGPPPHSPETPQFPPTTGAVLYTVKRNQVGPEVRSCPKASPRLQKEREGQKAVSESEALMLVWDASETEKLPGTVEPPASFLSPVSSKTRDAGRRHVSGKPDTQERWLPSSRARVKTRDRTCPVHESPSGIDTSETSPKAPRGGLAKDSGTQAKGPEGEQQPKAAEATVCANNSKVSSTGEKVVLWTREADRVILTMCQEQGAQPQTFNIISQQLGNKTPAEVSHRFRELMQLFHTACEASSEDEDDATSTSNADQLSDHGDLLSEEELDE
UniProt Q14691: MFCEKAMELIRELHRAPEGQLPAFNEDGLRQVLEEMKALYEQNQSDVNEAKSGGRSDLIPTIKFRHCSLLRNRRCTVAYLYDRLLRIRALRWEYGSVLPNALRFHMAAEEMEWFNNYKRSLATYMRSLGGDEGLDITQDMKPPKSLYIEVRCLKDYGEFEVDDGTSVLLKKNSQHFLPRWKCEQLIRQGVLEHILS
UniProt Q6Y7W6: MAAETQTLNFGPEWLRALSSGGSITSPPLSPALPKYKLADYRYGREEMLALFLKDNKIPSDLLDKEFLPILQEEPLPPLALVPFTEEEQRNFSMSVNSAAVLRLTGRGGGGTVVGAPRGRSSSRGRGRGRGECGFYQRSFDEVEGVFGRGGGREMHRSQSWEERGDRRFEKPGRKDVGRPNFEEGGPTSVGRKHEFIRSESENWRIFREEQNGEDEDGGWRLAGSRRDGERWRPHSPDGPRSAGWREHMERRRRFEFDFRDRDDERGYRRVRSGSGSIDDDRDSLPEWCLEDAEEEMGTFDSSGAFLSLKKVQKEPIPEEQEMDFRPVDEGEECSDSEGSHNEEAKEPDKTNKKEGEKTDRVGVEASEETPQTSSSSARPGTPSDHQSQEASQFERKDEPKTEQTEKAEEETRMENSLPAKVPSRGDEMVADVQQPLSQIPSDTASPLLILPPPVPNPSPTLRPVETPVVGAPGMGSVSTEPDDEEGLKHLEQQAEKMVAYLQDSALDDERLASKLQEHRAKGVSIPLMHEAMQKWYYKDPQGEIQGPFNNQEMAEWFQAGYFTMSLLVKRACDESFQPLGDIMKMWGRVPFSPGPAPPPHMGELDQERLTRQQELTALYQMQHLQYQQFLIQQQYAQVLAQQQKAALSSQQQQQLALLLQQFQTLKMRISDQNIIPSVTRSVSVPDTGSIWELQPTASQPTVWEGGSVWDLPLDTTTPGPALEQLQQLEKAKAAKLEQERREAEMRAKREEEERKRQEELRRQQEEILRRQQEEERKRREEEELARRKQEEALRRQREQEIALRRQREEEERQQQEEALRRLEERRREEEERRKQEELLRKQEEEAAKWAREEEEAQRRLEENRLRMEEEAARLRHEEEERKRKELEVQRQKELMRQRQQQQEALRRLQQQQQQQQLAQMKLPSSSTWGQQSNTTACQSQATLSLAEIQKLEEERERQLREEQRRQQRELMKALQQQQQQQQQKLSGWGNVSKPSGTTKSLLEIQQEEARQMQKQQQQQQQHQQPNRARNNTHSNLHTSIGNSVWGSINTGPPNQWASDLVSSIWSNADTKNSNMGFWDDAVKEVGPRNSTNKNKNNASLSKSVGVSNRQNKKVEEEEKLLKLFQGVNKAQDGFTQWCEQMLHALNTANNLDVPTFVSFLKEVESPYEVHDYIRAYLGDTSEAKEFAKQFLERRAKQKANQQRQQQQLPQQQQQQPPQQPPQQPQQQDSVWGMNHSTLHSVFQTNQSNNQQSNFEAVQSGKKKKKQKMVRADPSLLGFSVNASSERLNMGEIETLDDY
UniProt Q53EU6: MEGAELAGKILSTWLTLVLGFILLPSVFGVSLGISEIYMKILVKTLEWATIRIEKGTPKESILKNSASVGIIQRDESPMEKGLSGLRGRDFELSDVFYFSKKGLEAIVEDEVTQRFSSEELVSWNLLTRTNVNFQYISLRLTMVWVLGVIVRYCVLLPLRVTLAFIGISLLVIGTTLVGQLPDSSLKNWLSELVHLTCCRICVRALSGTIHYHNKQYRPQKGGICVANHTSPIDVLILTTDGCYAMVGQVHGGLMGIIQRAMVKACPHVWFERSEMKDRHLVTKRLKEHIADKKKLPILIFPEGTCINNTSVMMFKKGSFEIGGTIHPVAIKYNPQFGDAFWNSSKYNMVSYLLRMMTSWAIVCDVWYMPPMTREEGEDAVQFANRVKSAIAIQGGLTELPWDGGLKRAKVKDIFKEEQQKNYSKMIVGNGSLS
UniProt Q8IW92: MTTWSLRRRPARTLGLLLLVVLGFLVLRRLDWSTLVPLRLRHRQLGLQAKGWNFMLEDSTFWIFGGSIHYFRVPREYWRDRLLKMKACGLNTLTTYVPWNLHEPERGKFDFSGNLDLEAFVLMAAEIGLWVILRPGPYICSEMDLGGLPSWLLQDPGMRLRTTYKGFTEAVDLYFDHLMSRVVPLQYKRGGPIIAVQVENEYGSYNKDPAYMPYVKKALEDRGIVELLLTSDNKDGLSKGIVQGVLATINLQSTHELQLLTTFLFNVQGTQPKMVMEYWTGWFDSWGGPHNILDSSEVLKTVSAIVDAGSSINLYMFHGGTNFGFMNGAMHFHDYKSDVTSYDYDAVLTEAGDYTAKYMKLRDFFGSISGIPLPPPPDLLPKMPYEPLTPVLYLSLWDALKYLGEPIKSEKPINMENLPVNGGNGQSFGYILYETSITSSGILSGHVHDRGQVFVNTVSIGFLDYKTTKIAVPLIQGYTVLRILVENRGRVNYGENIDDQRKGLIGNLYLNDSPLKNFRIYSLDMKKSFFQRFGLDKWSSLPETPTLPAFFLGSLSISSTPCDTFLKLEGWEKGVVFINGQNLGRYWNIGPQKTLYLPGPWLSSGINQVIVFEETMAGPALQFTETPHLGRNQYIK
UniProt Q9Y3E0: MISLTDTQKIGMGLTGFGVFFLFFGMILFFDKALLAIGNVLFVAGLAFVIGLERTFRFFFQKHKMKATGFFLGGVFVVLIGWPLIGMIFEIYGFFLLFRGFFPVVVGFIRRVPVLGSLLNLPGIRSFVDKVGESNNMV
UniProt Q8N335: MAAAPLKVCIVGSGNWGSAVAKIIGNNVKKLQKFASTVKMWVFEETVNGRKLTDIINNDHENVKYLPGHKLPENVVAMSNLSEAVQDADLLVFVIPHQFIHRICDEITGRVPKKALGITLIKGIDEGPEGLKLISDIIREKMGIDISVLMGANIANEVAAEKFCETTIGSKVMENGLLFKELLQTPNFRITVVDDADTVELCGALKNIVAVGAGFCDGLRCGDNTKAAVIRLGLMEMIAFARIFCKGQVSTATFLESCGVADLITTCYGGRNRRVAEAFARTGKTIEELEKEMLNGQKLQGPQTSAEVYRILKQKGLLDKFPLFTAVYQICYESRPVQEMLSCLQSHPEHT
UniProt O60234, whole entry, looked up: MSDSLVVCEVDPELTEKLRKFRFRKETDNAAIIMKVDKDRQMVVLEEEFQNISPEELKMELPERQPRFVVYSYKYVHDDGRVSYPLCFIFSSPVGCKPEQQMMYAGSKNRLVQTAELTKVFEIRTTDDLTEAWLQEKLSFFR
UniProt P17174: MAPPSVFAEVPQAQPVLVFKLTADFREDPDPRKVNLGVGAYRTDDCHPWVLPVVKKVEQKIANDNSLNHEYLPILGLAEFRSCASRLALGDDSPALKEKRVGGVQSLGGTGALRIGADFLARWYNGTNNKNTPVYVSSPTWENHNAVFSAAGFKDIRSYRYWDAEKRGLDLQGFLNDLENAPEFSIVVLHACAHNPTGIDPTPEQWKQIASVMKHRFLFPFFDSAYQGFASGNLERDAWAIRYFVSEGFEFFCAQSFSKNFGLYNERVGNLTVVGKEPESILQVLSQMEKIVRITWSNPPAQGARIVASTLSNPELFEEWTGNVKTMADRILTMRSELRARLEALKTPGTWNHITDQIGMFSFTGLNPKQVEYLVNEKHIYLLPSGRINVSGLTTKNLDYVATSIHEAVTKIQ
UniProt P13224: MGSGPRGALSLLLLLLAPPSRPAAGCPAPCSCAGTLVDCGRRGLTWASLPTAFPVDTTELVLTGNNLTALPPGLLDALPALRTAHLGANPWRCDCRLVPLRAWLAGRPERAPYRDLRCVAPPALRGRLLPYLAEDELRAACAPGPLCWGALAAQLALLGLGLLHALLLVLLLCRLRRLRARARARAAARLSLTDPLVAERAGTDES
UniProt O76003: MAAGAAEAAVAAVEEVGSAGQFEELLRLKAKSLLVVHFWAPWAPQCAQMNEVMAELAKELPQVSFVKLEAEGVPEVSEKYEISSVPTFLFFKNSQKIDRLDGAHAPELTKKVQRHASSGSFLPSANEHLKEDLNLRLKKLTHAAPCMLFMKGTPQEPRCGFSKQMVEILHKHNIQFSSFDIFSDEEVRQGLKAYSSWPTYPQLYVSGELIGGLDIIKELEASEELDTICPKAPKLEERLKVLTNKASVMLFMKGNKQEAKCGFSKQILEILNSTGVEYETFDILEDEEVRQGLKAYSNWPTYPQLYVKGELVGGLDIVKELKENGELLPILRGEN

Compound in this assay: COC1=CC=C(C=C1)CN2C=CC3=C2C=C(C=C3)C(=O)NO
Kind of assay: log2 fold change, soluble protein after heating vs DMSO (PISA); higher = thermal stabilisation; K562 cells, 10 uM, 30 min; active = over 0.2 and 3.5 SD of the protein, either way, in both replicates (recomputed). Summed up:
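Quantification of soluble protein used TMTpro 16plex LC-MS/MS, with channel sums equalised. Samples were the supernatant after 21,000xg for 90 min of pooled aliquots from K562 cells (2×10^6 cells/mL) treated with 10 μM compound for 30 min, heated for 3 min over 48°C-58°C, and extracted in PBS with 0.5% NP-40 at 4°C. Values, from duplicates, describe thermal stability against control samples on a log2 fold-change scale.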
As to GMEB1 (UniProt Q9Y692), the log2 fold change is inactive: 0.049.
Turning to GLO1 (UniProt Q04760), the log2 fold change was inactive: 0.068.
As for GOPC (UniProt Q9HD26), the log2 fold change was inactive: -0.059.
Regarding GON4L (UniProt Q3T8J9), the log2 fold change was inactive: 0.039.
Take GNB4 (UniProt Q9HAV0): the log2 fold change was inactive: -0.082.
To GPN3 isoform 2 (UniProt Q9UHW5) belongs inactive: 0.034; to GMPS (UniProt P49915), inactive: 0.024.
Take GINS1 (UniProt Q14691): the log2 fold change is inactive: 0.025.
As to GIGYF2 (UniProt Q6Y7W6), the log2 fold change is inactive: 0.005.
With GLS (UniProt O94925), the log2 fold change was inactive: 0.009.
On to GPAT3 (UniProt Q53EU6), for which the log2 fold change is inactive: -0.014.
As to GNPTAB (UniProt Q3T906), the log2 fold change was inactive: -0.093.
On to GMPR (UniProt P36959), for which the log2 fold change is inactive: 0.055.
On to GLB1L2 (UniProt Q8IW92), for which the log2 fold change is inactive: 0.047.
The value for GOLT1B (UniProt Q9Y3E0) was inactive: 0.011; that for GMEB2 (UniProt Q9UKD1) was inactive: -0.027; that for GPD1L (UniProt Q8N335) was inactive: -0.006.
As to GMFG (UniProt O60234), the log2 fold change is inactive: -0.137.
The value for GNPNAT1 (UniProt Q96EK6) was inactive: -0.016; that for GOT2 (UniProt P00505) was inactive: 0.
To GLUL (UniProt P15104) belongs inactive: 0.11; to GLG1 isoform 2 (UniProt Q92896), inactive: 0.031; to GLYR1 (UniProt Q49A26), inactive: -0.024.
To GOT1 (UniProt P17174) belongs inactive: -0.008; to GMNN (UniProt O75496), inactive: 0.001; to GP1BB isoform 2 (UniProt P13224), inactive: -0.047.
For the target GLRX5 (UniProt Q86SX6), the log2 fold change was inactive: 0.027.
Consider GLUD1 (UniProt P00367), for which the log2 fold change was inactive: -0.012.
For GREB1 (UniProt Q4ZG55), the log2 fold change was inactive: 0.448.
As to GNPDA1 (UniProt P46926), the log2 fold change was inactive: -0.106.
Take GLMP (UniProt Q8WWB7): the log2 fold change is inactive: 0.062.
The value for GLRX3 (UniProt O76003) was inactive: 0.005; that for GNPAT (UniProt O15228) was inactive: 0.008; that for GON7 (UniProt Q9BXV9) was inactive: 0.014.
To GOLGA7B (UniProt Q2TAP0) belongs inactive: -0.069.
Turning to GNB2 (UniProt P62879), the log2 fold change was inactive: -0.051.
As for GOLGA7 (UniProt Q7Z5G4), the log2 fold change was inactive: -0.056.
To GINS3 (UniProt Q9BRX5) belongs inactive: -0.033.

Source of the values: the supplement of paper PMC10849652.
